Results are given in words; binding and its absence hold for the method and conditions named. Some entries that bind do so weakly or less than the wild type.
What was measured:
[1] = molecular target: iSRCR123 (human) (UniProt Q9UGM3); test: SPR, self adhesion
[2] = molecular target: iSRCR1 (human) (UniProt Q9UGM3); test: SPR, iSRCR1 immobilized on CM5 chip, analyte 0.250-2.000 µM (self adhesion)
[3] = molecular target: iSRCR123 (human) (UniProt Q9UGM3); test: SPR, iSRCR123 immobilized on CM5 chip, analyte 0.250-2.000 µM (self adhesion)
[4] = molecular target: iSRCR1 (human) (UniProt Q9UGM3); test: ELISA
[5] = molecular target: iSRCR123 (human) (UniProt Q9UGM3); test: ELISA
[6] = molecular target: iSRCR1 (human) (UniProt Q9UGM3); test: ELISA, fluorescently labeled analyte on coated iSRCR1; ELISA (FIG. 9)
[7] = molecular target: iSRCR123 (human) (UniProt Q9UGM3); test: ELISA, fluorescently labeled analyte on coated iSRCR123; ELISA (FIG. 9)
[8] = molecular target: iSRCR1 (human) (UniProt Q9UGM3); test: SPR, iSRCR1 immobilized, 2 µM analyte, buffer with 2.5 mM CaCl2
[9] = molecular target: iSRCR1 (human) (UniProt Q9UGM3); test: SPR, amount of 2 µM analyte bound to immobilized iSRCR1, calculated from RU
[10] = molecular target: iSRCR1 (human) (UniProt Q9UGM3); test: SPR, iSRCR1 immobilized, 2 µM fragment alone or incubated with SRCRP2 peptide
[11] = molecular target: iSRCR1 (human) (UniProt Q9UGM3); test: fluorescence ELISA, iSRCR1 coated (dashed lines), fragment labelled with Alexa Fluor 488 anti-His antibody, 1 ng-1 µg

Sequences of proteins named here, by UniProt entry; tags and fusion partners are left off. Residues count along the entry.
iSRCR123 (Q9UGM3, residues 102-463): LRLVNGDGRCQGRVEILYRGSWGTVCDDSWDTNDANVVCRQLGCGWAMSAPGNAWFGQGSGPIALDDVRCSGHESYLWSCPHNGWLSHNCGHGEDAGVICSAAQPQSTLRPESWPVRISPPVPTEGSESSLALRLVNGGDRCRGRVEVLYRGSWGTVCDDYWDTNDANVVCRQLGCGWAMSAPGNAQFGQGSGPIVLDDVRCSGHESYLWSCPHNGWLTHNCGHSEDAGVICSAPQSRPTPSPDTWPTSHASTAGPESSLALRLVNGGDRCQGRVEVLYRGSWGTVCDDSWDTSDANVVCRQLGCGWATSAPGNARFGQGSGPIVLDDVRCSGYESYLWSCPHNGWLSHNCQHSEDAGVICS
iSRCR1 (Q9UGM3, residues 102-202): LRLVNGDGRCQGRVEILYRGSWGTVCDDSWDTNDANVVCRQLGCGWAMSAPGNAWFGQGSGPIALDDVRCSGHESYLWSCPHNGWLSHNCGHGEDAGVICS
UniProt P16952, residues 39-1433: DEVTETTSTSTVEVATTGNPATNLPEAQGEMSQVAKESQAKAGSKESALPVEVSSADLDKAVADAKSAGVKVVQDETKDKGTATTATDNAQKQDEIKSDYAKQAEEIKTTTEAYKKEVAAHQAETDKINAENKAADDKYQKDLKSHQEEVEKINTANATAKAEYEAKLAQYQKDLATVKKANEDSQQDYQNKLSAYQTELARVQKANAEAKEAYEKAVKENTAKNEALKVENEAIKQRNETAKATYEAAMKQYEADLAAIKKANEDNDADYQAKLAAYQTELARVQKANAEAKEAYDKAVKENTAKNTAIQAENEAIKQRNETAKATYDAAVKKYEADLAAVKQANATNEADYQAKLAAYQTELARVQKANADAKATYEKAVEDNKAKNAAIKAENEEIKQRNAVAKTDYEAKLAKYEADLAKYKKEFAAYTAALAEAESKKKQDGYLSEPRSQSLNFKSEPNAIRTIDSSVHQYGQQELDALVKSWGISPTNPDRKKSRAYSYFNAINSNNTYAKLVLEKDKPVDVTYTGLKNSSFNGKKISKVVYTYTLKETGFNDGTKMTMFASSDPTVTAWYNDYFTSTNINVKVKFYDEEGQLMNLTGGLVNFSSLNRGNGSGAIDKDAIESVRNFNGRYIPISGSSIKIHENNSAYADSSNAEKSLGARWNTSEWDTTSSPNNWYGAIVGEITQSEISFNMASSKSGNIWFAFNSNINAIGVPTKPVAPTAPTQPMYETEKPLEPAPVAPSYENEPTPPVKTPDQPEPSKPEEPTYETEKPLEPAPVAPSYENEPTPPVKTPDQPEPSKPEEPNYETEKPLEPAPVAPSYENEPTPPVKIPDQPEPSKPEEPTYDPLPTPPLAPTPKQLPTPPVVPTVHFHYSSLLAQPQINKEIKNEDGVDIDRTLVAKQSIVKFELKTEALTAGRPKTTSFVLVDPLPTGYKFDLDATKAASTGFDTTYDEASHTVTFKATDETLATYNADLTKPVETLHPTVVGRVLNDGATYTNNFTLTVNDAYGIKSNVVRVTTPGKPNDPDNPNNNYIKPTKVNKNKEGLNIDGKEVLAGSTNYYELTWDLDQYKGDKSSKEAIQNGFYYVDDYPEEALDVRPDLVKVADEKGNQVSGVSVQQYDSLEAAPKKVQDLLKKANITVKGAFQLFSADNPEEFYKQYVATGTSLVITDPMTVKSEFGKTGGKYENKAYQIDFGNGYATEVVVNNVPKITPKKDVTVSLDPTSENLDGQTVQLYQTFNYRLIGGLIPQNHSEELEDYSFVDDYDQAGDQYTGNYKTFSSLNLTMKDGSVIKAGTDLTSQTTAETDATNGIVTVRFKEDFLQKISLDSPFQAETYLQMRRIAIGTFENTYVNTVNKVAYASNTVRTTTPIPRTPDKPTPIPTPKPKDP

Measured: binding

iSRCR1 (from UniProt Q9UGM3 102-202) (receptor)
binds: [1] | [2] | [3]

FL^SspB (S. gordonii DL1 SspB, residues 39-1433) (from UniProt P16952 39-1433)
not listed: [1] | [2] | [3]
binds: all other assays above

iSRCR123 (from UniProt Q9UGM3 102-463) (receptor)
binds: [2] | [3]
